Patent US6410253B1, “Cholesterol oxidase” (priority 1990, dated 2002)
At least one compound was matched to its structure with a doubt left.

System: cholesterol oxidase II
Assay: Substrate specificity of cholesterol oxidase II (relative activity on sterol substrates)
Type: biochemical, Brevibacterium sterolicum ATCC 21387
Settings: cholesterol = 100
Procedure: The amount of enzyme which catalyzes the reaction of decomposing 1 μmole of cholesterol at 37° C. for one minute in the presence of oxygen is defined as one unit. The titer is determined as follows. While shaking, the enzyme acts on cholesterol and 4-aminoantipyrine and phenol are reacted with the formed hydrogen peroxide in the presence of peroxidase to form quinonimine pigment. Absorption of the thus formed quinonimine pigment in the visible region is measured to determine the amount of hydrogen peroxide generated. Thus, the titer of the enzyme is determined. Hereafter specific activity is defined as activity per 1 mg of protein (unit/mg).
The enzyme activity is determined by reacting hydrogen peroxide generated by the enzyme with 4-aminoantipyrine and phenol in the presence of peroxidase and quantitatively determining the formed quinonimine pigment. The reaction is shown by the following equations (1) and (2). [drawing 3]
The mixture is agitated. After maintaining at 37° C. for 3 minutes, 0.2 ml of an enzyme solution is added to the mixture. While shaking, the reaction is carried out at 37° C. for 5 to 10 minutes. Then, absorbance is measured at 500 nm (OD 500 nm)

For `C[C@]12CC[C@@H]3c4ccc(O)cc4CC[C@H]3[C@@H]1CC[C@@H]2O` [Estradiol], the “Relative Activity (%) of cholesterol oxidase II on substrate” value was 3.2%.
